Experimental data published in patent US20060210520A1, “Macadamia lipid based surfactants and derivatives and process for preparing same” (Finetex, Inc., priority 2005, published 2006).

Tests used:
[1] = Comparative conditioning properties: wet and dry comb, flyaway, rating 1 best, 10 poor (Example 38); settings: 2.5% active conditioner in conditioner base, hair tresses
[2] = Foam test of Macadamia oil-based surfactants (Example 30); format: physicochemical; settings: 0.1 gram surfactant in 100 ml. water, 10 strokes; for Initial height (0 minutes) / Final height (5 minutes): foam height; for Final height (5 minutes): after 5 minutes

Molecule | Dry Comb [1] | Wet Comb [1] | Durability of foam [2] | Nature of foam [2] | Initial height (0 minutes) [2] | Final height (5 minutes) [2]
CCCCCCCCCCCCCCCCCC[N+](C)(C)Cc1ccccc1.[Cl-] [Stearylalkonium Chloride] | 5 | 5 | – | – | – | –
Sodium Methyl Cocoyl Taurate [TAURANOL WS CONS] | – | – | stable | large bubbles | 200 mL | 150 mL
Macadamia-amidopropylbetaine [Example 4] | – | – | stable | uniform thick rich | 170 mL | 150 mL
Cocobetaine [reference compound] | – | – | stable | mixture of thick | 150 mL | 100 mL
CCCCCCCCCCCCCCCC[N+](C)(C)C.[Cl-] [Cetrimonium Chloride] | 3 | 7 | – | – | – | –
